Results from EP3118613B1, “ELECTRIC COMPONENT WITH ORGANIC PART” (ACREO SWEDISH ICT AB, priority 2015, dated 2017).

Tested on: xylem vascular system of roses
Assay: Uptake from aqueous solution and wire formation in the xylem of rose cuttings
Design: species or system Rosa floribunda
Conditions: 1 mg/ml aqueous solution, cut rose stem immersed
Procedure: We chose to use cuttings of Rosa floribunda (garden rose) as our model plant system. The lower part of a rose stem was cut and the fresh cross section was immersed in an aqueous PEDOT-S:H solution for 24-48 h (Fig. 7A), during which time the PEDOT-S:H solution was taken up into the xylem vascular channel and transported apically. The rose was taken from the solution and rinsed in water. The outer bark, cortex and phloem of the bottom part of the stem were then gently peeled off, exposing dark continuous lines along individual 20-100 µm wide xylem channels (Fig. 7B-D). These "wires" extended more than 5 cm along the stem. From optical and scanning electron microscope images of fresh and freeze-dried stems, we conclude that the PEDOT-S:H formed dense and homogenous wires occupying the entire xylem tubular channel. PEDOT-S:H is known to form hydrogels in aqueous-rich environments, in particular in the presence of divalent cations, and we assume that this is also the case for the wires established along the xylem channels of rose stems. The conductivity of PEDOT-S:H wires was measured using two Au probes applied into individual PEDOT-S:H xylem wires along the stem (Fig. 7D). From the linear fit of resistance versus distance between the contacts, we found electrical conductivity reading 0.13 S/cm with contact resistance ∼10 kΩ (Fig. 7E). […]

exo-EDOT-Thiophene-EDOT-alkoxylfonate [compound 1]
length of continuous wires along stem or petiole: at least 9 cm
length of continuous wires along stem or petiole (listed as ETE-S): more than 10 cm
